{"sequences": {"note": "By UniProt entry, the sequences of proteins in these tests, tags left out. Where a name states a change or a piece, a line headed by the entry shows the natural chain unless it says otherwise.", "UniProt Q15773": "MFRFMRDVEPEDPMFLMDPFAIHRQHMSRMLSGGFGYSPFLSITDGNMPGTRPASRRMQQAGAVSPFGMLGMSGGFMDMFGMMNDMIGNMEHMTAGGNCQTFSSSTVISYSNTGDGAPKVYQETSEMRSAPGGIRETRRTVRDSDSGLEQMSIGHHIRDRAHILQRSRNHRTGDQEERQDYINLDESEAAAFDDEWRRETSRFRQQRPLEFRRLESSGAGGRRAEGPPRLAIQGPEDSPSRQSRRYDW", "UniProt Q9UHA4, whole entry": "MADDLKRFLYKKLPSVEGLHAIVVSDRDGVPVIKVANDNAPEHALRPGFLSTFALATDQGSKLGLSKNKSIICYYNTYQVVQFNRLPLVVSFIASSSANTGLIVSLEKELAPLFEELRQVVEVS", "UniProt Q99549": "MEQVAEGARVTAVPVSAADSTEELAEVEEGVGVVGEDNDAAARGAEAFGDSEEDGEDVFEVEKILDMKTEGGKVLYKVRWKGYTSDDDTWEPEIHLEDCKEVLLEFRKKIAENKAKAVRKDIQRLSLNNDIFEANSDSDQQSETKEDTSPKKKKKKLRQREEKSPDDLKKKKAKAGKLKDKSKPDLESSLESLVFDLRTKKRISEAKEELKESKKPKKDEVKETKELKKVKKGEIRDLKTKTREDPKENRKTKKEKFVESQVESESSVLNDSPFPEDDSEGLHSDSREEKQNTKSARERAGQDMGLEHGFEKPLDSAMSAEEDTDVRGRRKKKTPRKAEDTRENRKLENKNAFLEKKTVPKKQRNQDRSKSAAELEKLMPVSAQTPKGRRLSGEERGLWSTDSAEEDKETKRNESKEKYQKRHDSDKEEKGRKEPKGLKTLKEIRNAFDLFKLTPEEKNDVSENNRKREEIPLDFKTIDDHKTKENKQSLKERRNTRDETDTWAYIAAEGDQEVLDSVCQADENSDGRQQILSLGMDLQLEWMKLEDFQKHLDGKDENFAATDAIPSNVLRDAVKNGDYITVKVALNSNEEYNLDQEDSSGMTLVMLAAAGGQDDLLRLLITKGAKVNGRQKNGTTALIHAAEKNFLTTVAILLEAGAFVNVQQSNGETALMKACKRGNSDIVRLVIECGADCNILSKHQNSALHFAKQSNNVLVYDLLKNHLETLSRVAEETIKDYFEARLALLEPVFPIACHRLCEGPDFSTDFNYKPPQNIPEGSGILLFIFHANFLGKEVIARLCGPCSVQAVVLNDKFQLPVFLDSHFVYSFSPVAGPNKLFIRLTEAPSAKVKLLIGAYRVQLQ", "UniProt P29966": "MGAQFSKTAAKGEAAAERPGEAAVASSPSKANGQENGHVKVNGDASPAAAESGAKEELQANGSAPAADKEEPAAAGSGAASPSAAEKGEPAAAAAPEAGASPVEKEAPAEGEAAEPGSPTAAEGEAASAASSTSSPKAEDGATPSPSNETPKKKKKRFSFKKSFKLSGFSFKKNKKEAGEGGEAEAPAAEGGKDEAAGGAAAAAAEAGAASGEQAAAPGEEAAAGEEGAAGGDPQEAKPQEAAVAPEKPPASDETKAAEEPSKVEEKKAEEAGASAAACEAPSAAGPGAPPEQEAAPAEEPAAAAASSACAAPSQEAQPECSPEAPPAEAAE", "UniProt Q07820, whole entry": "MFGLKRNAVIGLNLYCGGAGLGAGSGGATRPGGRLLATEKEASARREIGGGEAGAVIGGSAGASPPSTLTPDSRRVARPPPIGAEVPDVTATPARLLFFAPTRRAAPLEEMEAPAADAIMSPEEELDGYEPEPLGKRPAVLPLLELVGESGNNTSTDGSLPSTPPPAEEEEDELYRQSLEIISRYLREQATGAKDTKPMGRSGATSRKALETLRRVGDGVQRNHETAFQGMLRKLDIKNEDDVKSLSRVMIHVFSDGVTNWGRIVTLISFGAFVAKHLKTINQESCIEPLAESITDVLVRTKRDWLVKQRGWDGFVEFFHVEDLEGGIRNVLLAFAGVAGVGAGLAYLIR", "UniProt P51948": "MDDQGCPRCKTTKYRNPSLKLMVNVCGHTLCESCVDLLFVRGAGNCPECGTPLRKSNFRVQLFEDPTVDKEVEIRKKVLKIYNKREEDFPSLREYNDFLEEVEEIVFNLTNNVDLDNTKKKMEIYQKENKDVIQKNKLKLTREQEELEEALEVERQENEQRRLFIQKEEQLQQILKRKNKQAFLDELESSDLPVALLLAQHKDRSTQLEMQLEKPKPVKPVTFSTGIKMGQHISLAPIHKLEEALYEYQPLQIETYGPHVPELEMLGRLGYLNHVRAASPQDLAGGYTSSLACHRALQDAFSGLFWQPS", "UniProt P42679": "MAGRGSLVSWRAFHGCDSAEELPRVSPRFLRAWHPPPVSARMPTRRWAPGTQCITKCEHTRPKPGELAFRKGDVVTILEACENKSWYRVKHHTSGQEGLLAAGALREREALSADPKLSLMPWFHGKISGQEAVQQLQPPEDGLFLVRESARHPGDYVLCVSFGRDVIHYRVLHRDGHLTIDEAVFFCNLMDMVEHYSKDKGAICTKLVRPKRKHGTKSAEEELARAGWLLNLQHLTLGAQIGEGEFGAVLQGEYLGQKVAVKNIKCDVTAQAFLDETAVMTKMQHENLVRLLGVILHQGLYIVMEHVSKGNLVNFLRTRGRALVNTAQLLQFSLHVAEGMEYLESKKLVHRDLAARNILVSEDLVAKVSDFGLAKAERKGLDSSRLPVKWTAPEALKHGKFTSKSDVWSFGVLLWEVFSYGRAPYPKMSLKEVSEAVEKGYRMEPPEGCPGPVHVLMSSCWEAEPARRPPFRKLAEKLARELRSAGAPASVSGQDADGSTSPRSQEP", "UniProt Q9ULK4": "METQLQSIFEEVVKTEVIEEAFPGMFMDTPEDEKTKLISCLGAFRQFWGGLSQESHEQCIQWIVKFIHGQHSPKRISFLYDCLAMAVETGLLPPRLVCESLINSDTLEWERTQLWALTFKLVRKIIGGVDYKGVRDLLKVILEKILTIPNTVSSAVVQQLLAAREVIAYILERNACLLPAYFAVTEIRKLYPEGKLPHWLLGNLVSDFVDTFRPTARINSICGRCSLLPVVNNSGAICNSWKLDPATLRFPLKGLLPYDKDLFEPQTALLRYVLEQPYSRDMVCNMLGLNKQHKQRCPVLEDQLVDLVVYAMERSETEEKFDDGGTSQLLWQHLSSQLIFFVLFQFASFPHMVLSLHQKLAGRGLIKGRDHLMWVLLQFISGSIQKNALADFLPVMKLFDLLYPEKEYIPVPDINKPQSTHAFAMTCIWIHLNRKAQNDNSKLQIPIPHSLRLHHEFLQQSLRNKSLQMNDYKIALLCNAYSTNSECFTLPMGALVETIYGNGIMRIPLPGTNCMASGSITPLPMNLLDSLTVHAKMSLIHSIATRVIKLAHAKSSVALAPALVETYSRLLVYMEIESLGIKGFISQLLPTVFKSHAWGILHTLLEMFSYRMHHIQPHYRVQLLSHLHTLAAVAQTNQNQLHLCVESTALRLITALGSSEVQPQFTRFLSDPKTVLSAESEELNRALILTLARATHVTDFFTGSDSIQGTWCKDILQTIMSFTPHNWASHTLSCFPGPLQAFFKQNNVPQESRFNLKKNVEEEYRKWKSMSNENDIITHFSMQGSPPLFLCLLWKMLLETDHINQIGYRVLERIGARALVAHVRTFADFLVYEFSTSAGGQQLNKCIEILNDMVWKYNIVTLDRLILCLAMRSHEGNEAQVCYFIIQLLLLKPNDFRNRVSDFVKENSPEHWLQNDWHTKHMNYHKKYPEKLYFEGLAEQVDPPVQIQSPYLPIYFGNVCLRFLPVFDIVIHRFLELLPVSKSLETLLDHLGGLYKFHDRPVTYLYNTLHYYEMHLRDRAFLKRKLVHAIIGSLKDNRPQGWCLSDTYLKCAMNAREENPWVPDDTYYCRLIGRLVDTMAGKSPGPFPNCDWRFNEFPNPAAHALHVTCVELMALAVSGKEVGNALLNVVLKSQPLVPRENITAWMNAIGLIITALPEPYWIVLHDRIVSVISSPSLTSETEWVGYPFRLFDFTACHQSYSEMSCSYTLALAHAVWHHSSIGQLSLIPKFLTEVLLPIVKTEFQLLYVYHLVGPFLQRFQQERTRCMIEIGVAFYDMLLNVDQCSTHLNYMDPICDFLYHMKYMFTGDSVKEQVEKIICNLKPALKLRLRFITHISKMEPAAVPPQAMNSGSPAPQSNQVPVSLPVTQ", "UniProt Q9Y4K4": "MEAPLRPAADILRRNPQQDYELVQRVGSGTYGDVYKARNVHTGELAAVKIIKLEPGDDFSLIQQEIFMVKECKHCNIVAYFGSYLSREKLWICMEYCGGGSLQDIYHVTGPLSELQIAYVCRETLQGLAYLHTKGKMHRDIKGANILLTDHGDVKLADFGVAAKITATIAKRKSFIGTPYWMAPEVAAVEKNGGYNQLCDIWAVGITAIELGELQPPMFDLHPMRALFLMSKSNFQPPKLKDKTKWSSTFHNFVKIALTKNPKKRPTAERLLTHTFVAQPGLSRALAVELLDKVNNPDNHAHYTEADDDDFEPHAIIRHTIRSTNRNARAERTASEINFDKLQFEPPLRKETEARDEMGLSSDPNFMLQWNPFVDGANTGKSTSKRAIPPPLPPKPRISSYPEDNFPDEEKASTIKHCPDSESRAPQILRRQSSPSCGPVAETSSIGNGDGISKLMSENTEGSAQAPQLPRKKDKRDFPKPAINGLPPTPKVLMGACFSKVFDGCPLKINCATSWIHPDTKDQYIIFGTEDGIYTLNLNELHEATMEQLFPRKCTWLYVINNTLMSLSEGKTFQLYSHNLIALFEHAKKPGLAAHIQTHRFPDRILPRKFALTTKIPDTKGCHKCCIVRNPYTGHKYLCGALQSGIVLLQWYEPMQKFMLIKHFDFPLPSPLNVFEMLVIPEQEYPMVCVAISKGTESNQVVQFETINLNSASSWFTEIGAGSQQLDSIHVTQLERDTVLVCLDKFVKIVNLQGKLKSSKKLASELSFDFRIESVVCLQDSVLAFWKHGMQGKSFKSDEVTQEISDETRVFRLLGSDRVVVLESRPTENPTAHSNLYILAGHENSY", "UniProt Q9BRX9": "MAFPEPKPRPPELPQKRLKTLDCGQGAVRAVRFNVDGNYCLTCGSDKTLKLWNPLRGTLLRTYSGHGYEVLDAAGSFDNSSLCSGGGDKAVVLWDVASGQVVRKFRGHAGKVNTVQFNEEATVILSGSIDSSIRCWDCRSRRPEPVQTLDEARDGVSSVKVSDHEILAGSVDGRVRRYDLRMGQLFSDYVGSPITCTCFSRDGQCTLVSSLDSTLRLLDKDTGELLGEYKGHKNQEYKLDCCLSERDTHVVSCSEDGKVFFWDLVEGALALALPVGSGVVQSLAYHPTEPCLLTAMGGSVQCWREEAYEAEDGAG", "UniProt O00462": "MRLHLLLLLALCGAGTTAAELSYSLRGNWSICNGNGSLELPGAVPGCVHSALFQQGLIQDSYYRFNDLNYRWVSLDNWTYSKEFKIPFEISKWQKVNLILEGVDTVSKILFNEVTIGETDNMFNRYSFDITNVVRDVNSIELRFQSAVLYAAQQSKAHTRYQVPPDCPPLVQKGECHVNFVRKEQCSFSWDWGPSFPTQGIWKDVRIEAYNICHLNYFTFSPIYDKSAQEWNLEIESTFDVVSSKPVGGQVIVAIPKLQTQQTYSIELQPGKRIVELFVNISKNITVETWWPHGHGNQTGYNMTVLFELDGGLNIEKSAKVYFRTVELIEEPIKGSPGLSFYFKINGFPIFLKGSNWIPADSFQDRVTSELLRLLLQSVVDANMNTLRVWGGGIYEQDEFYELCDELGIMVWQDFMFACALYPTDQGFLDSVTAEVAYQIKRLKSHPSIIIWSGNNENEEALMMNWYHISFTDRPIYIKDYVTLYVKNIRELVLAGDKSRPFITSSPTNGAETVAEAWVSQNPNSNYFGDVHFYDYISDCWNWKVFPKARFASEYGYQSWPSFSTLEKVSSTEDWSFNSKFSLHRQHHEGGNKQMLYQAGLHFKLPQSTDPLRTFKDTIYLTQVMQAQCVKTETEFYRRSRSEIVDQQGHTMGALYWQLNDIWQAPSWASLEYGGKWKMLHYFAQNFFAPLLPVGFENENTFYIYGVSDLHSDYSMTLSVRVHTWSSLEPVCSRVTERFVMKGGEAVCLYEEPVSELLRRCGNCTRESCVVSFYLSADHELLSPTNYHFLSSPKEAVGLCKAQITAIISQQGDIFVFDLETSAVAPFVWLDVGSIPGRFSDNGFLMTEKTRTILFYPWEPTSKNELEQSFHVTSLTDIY"}, "source": "the supplement of paper PMC7666118", "note": "The list shows a part of the results.", "data": [{"compound": "COc1ccc(Cn2ccc3ccc(C(=O)NO)cc32)cc1", "assay": "dose-dependent thermal stabilisation call (2D-TPP, DLPTP, 10% FDR) (binary (1 = stabilised)); higher = stabilised by the compound", "settings": "system: HL-60 intact cells; concentration range 0.04-10 µM", "values": [{"target": "MLF2 (UniProt Q15773)", "dose-dependent thermal stabilisation call": "inactive: 0"}, {"target": "MRPL17 (UniProt Q9NRX2)", "dose-dependent thermal stabilisation call": "inactive: 0"}, {"target": "MRPL51 (UniProt Q4U2R6)", "dose-dependent thermal stabilisation call": "inactive: 0"}, {"target": "MRC2 (UniProt Q9UBG0)", "dose-dependent thermal stabilisation call": "inactive: 0"}, {"target": "MPP1 (UniProt Q00013)", "dose-dependent thermal stabilisation call": "inactive: 0"}, {"target": "METTL8 (UniProt Q9H825)", "dose-dependent thermal stabilisation call": "inactive: 0"}, {"target": "MLC1 (UniProt Q15049)", "dose-dependent thermal stabilisation call": "inactive: 0"}, {"target": "MLKL (UniProt Q8NB16)", "dose-dependent thermal stabilisation call": "inactive: 0"}, {"target": "MOBKL3 (UniProt Q9Y3A3)", "dose-dependent thermal stabilisation call": "inactive: 0"}, {"target": "MAPKSP1 (UniProt Q9UHA4)", "dose-dependent thermal stabilisation call": "inactive: 0"}, {"target": "MRPL10 (UniProt Q7Z7H8)", "dose-dependent thermal stabilisation call": "inactive: 0"}, {"target": "MRPS23 (UniProt Q9Y3D9)", "dose-dependent thermal stabilisation call": "inactive: 0"}, {"target": "MAPRE2 (UniProt Q15555)", "dose-dependent thermal stabilisation call": "inactive: 0"}, {"target": "MPHOSPH8 (UniProt Q99549)", "dose-dependent thermal stabilisation call": "inactive: 0"}, {"target": "MBTPS2 (UniProt O43462)", "dose-dependent thermal stabilisation call": "inactive: 0"}, {"target": "MARCKS (UniProt P29966)", "dose-dependent thermal stabilisation call": "inactive: 0"}, {"target": "MRPS22 (UniProt P82650)", "dose-dependent thermal stabilisation call": "inactive: 0"}, {"target": "MRPL16 (UniProt Q9NX20)", "dose-dependent thermal stabilisation call": "inactive: 0"}, {"target": "MPST (UniProt P25325)", "dose-dependent thermal stabilisation call": "inactive: 0"}, {"target": "MCL1 (UniProt Q07820)", "dose-dependent thermal stabilisation call": "inactive: 0"}, {"target": "MARS2 (UniProt Q96GW9)", "dose-dependent thermal stabilisation call": "inactive: 0"}, {"target": "MAT2B (UniProt Q9NZL9)", "dose-dependent thermal stabilisation call": "inactive: 0"}, {"target": "MRP63 (UniProt Q9BQC6)", "dose-dependent thermal stabilisation call": "inactive: 0"}, {"target": "MNAT1 (UniProt P51948)", "dose-dependent thermal stabilisation call": "active: 1"}, {"target": "MRPL28 (UniProt Q13084)", "dose-dependent thermal stabilisation call": "inactive: 0"}, {"target": "MATK (UniProt P42679)", "dose-dependent thermal stabilisation call": "inactive: 0"}, {"target": "MED23 (UniProt Q9ULK4)", "dose-dependent thermal stabilisation call": "inactive: 0"}, {"target": "MED16 (UniProt Q9Y2X0)", "dose-dependent thermal stabilisation call": "inactive: 0"}, {"target": "MAP4K5 (UniProt Q9Y4K4)", "dose-dependent thermal stabilisation call": "inactive: 0"}, {"target": "MCTS1 (UniProt Q9ULC4)", "dose-dependent thermal stabilisation call": "inactive: 0"}, {"target": "MORG1 (UniProt Q9BRX9)", "dose-dependent thermal stabilisation call": "inactive: 0"}, {"target": "MANBA (UniProt O00462)", "dose-dependent thermal stabilisation call": "inactive: 0"}, {"target": "MRPL1 (UniProt Q9BYD6)", "dose-dependent thermal stabilisation call": "inactive: 0"}, {"target": "MRPS2 (UniProt Q9Y399)", "dose-dependent thermal stabilisation call": "inactive: 0"}, {"target": "MGAT1 (UniProt P26572)", "dose-dependent thermal stabilisation call": "inactive: 0"}, {"target": "MGC3196", "dose-dependent thermal stabilisation call": "inactive: 0"}, {"target": "MORF4L1 (UniProt Q9UBU8)", "dose-dependent thermal stabilisation call": "inactive: 0"}]}]}
